# PubChem BioAssay AID2685 (National Center for Advancing Translational Sciences (NCATS), 2010)
# “And” between values parts separate entries of the source, which are not always exact repeats. Equal values may be shown once. The list shows a part of the results. These are further read-outs of the screen, such as a control signal, another cell line or another target. No call is given for them. The list favours compounds with an active or inconclusive main result. Words in brackets tell the shape of the fitted curve; partial curves, single points and poor fits give uncertain potencies.
# Experiment: qHTS Assay for Lipid Storage Modulators in Drosophila S3 Cells;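 for cell number change: cells counted by Cell Tracker Red CMTPX staining in the red channel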
# Conditions: BODIPY lipid droplet fluorescence, 18-24 h; for cell number change: measured here: cell count max response, cells fed with added oleic acid
# In short: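 Drosophila S3 cells got compounds at several concentrations plus oleic acid (400 uM solution). Laser-scanning cytometry with 488 nm excitation read lipid droplets at 500-530 nm and cells at 575-640 nm. Percent activity was relative to 20 uM Triacsin C.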
# [1] = measured here: cell number channel AC50, cells fed with added oleic acid
# [2] = measured here: lipid fluorescence (Fed channel) AC50, cells fed with added oleic acid
Structure (SMILES),cell number change,AC50 [1],AC50 [2]
CC(C)c1ccc(/C=N/Nc2ccc(C(=O)O)cc2)cc1,-50.3%,"18.4 µM [falling, partial curve, poor fit]",–
N#CCSc1nnc(C2CCCCC2)n1Cc1ccccc1,1.29%,–,–
O=C(NCc1ccccc1)c1ccc2ccccc2n1,29%,–,"29.1 µM [rising, single point]"
Nc1nonc1-c1nc2ccccc2n1CC(=O)N1CCN(c2ccc(F)cc2)CC1,–,"0.517 µM [rising, full curve, poor fit]","0.82 µM [rising, full curve]"
O=C(COC(=O)CCc1nc2ccccc2c(=O)[nH]1)NC(=O)NC1CCCC1,-50%,"23.1 µM [falling, single point]","6.51 µM [falling, single point]"
COc1ccc(NC(=O)c2ccc(C(=O)c3cc(OC)ccc3OC)cc2)cc1,-11.2%,"0.00517 µM [falling, partial curve, poor fit]",–
COc1ccc(CCC(=O)N2CCCc3ccccc32)cc1,-22.2%,–,"29.1 µM [falling, single point]"
CCC(C)NC(=O)Cn1cc(S(=O)(=O)N2CCN(c3ccccc3F)CC2)c2ccccc2c1=O (stereo not drawn),14.2%,"0.092 µM [rising, partial curve, poor fit]",–
O=C1C=CC(=O)N1c1ccc(N2CCCCC2)cc1,-59.3%,"7.31 µM [falling, partial curve]","20.6 µM [falling, single point]"
COc1cc(NC(=O)c2nccn2C)cc(C(=O)Nc2cccc(C(F)(F)F)c2)c1,-32.4%,"29.1 µM [falling, single point]","32.6 µM [falling, single point]"
COCCOC(=O)C1=C(C)NC2=C(C(=O)CC(C)(C)C2)C1c1ccc(N(C)C)cc1 (stereo not drawn),-6.03%,–,"2.91 µM [falling, single point]"
Cc1cc(C)cc(NC(=O)c2snc3c(=O)[nH]cnc23)c1,-66.1%,"32.6 µM [falling, single point]","29.1 µM [falling, single point]"
CC1(c2ccccc2)CC(C)(C)N2C(=O)C3(C(C#N)=C(N)Oc4cc(O)ccc43)c3cccc1c32 (stereo not drawn),-89.8%,"18.4 µM [falling, single point]","29.1 µM [falling, single point]"
COC(=O)c1c(-c2ccccc2OC)sc2ccc(OC)cc12,-9.15%,–,"4.11 µM [falling, single point]"
CCN(CC)S(=O)(=O)c1ccc(NS(=O)(=O)c2ccc(O)c([N+](=O)[O-])c2)cc1,-34.6%,"0.00461 µM [falling, full curve, poor fit]","6.51 µM [falling, single point]"
Cc1ccc(Nc2nc(N/N=C/c3c[nH]c4ccccc34)nc(N3CCOCC3)n2)cc1,-23.2%,–,"16.4 µM [falling, partial curve, poor fit]"
Cc1ccn2c(=O)nc(SCC(=O)N3CCC(Cc4ccccc4)CC3)nc2c1,-3.06%,–,"0.651 µM [falling, full curve]"
OCC1(CCc2ccccc2)CCN(Cc2ccc(OC(F)F)cc2)CC1,17.5%,–,"0.259 µM [rising, full curve, poor fit]"
CCOC(=O)c1c(C2CC2)csc1NC(=O)COC(=O)c1cc(OC)c(OC)cc1[N+](=O)[O-],-33.5%,"2.06 µM [falling, full curve]","2.06 µM [falling, full curve]"

# Among those listed so far, 4 have a halogen:
Structure (SMILES),cell number change,AC50 [1],AC50 [2]
Nc1nonc1-c1nc2ccccc2n1CC(=O)N1CCN(c2ccc(F)cc2)CC1,–,"0.517 µM [rising, full curve, poor fit]","0.82 µM [rising, full curve]"
CCC(C)NC(=O)Cn1cc(S(=O)(=O)N2CCN(c3ccccc3F)CC2)c2ccccc2c1=O (stereo not drawn),14.2%,"0.092 µM [rising, partial curve, poor fit]",–
COc1cc(NC(=O)c2nccn2C)cc(C(=O)Nc2cccc(C(F)(F)F)c2)c1,-32.4%,"29.1 µM [falling, single point]","32.6 µM [falling, single point]"
OCC1(CCc2ccccc2)CCN(Cc2ccc(OC(F)F)cc2)CC1,17.5%,–,"0.259 µM [rising, full curve, poor fit]"

# (more compounds)

Structure (SMILES),cell number change,AC50 [1],AC50 [2]
CSc1ccccc1NC(=O)C1CCCO1 (stereo not drawn),-3.95%,–,"4.61 µM [falling, full curve, poor fit]"
Cc1cc(NC(=O)C2CCCCC2)n(-c2nc3ccccc3[nH]2)n1,-9.45%,"2.59 µM [rising, partial curve, poor fit]","5.8 µM [rising, partial curve, poor fit]"
O=C(COc1ccccc1Cl)Nc1ccc(C(=O)N2CCCCC2)cc1,3.16%,–,"0.58 µM [rising, single point]"
CCNc1nc2ccccc2[nH]1,-24.8%,–,"0.146 µM [falling, full curve]"
Cc1ccc(S(=O)(=O)N2CCN(C(=O)COC(=O)c3cccc(Cl)c3)CC2)c(C)c1,2.72%,–,"29.1 µM [falling, single point]"
CCCNC(=O)c1cc(-c2ccc(OC)cc2)on1,46.4%,"8.2 µM [rising, partial curve]",–
COc1ccc(OCCOCCOc2ccc(C)cc2[N+](=O)[O-])cc1,23.9%,–,"5.17 µM [rising, partial curve]"
COc1ccccc1NC(=O)CCc1nnc2ccc(N3CCN(C)CC3)nn12,-181%,"25.9 µM [falling, partial curve]",–
Fc1cccc(Cl)c1Cn1nnc2c(-n3ccnc3)ncnc21,-10.5%,–,"0.326 µM [rising, partial curve, poor fit]"
O=C(N/N=C/c1ccc[nH]1)c1ccccc1OCc1ccccc1Cl,73.3%,"1.16 µM [rising, full curve]","1.84 µM [rising, partial curve]"
NCC(c1ccco1)c1c[nH]c2ccccc12 (stereo not drawn),3.86%,–,–
Cc1nnc(SCC(=O)NCc2ccc(Cl)cc2)[nH]c1=O,5.86%,–,"1.84 µM [falling, full curve, poor fit]"
O=C1NNC(=O)C2C3C=CC(C4CC34)C12 (stereo not drawn),-2.86%,"0.00411 µM [falling, full curve, poor fit]",–
Oc1ccc(Br)cc1-c1cc(-c2ccccc2F)[nH]n1,-13.2%,–,–
CCOc1ccc(NC(=O)c2ccc(NC(=S)NC3CC3)cc2)cc1,19.4%,–,"0.58 µM [rising, single point]"
O=C(O)c1nc(Cl)c(Cl)c(N/N=C/c2ccccc2C(F)(F)F)c1Cl,23%,–,–
CCC(C)(C)NC(=O)C(c1ccc(C)cc1)N(Cc1ccco1)C(=O)Cn1nnc2ccccc21 (stereo not drawn),-27.7%,–,"10.3 µM [falling, partial curve]"
NC(=O)c1ccccc1OCC(=O)NS(=O)(=O)c1ccc(Cl)cc1,-36.9%,"16.4 µM [falling, partial curve, poor fit]","0.231 µM [falling, full curve]"
O=C(Nc1cccc(-c2cccc(Cl)c2)c1)C1CCN(Cc2ccccn2)CC1,-24.2%,–,"29.1 µM [falling, single point]"

Structure (SMILES),cell number change,AC50 [1],AC50 [2]
CCCCNC(=O)c1c[nH]c2ccc(S(=O)(=O)Nc3ccc(OCC)cc3)cc2c1=O,-47.9%,"25.9 µM [falling, single point]","18.4 µM [falling, single point]"
Cc1cc(NC(=O)c2cccc(Oc3ccccc3)c2)n[nH]1,22.4%,–,"7.31 µM [rising, partial curve, poor fit]"
COC(=O)c1nn(-c2ccccc2)c(Cl)c1/C=N/OCc1ccc(C)cc1,-27.2%,"0.184 µM [falling, full curve, poor fit]",–
CCN(c1ccc(Cl)cc1)S(=O)(=O)c1nnc(NC(=O)C(C)C)s1,1.42%,–,–
CN(Cc1ccco1)c1ncnc2ccc(-c3ccc4c(c3)OCO4)cc12,-10.7% and 19%,"0.82 µM [falling, full curve, poor fit]","820 nM [falling, single point] and 29.1 µM [rising, single point]"
O=C(CSc1cn(CCNC(=O)c2ccccc2)c2ccccc12)NCC1CCCO1 (stereo not drawn),-54.5%,"23.1 µM [falling, partial curve]","29.1 µM [falling, single point]"
COc1cc(NC(=O)CCn2c(=S)oc3ccccc32)cc(OC)c1OC,0.308%,–,"0.0058 µM [falling, full curve, poor fit]"
Cc1ccccc1Nc1nc(-c2sc(NC(=O)c3ccco3)nc2C)cs1,–,"2.59 µM [rising, partial curve]","0.0651 µM [rising, full curve, poor fit]"
Cc1ccc(C2CC(=O)c3cnc(N4CC(C)CC(C)C4)nc3C2)cc1 (stereo not drawn),-30.2%,"29.1 µM [falling, single point]","18.4 µM [rising, single point]"
COc1cccc(NC(=S)N(CCN(C)C)C(C)c2ccco2)c1 (stereo not drawn),8.88%,–,–
Clc1ccc(CN2CCSCC2)cc1Cl,-1.4%,–,"29.1 µM [falling, single point]"
CC(C)(C)NC(=O)NC(=O)COc1ccc(Br)cc1Br,-21.8%,–,–
COc1cc(OC)cc(C(=O)Nc2cccc(N3CCCC3)c2)c1,-5.48%,–,–
O=C(CSc1nnc(-c2ccncc2)n1Cc1ccco1)Nc1nc(-c2ccccc2)cs1,62.1%,"29.1 µM [rising, single point]","0.58 µM [falling, partial curve, poor fit]"
Cc1cc(C)nc(NS(=O)(=O)c2ccc(N3C(=O)C4CCCCC4C3=O)cc2)n1 (stereo not drawn),14.5%,–,"0.631 µM [rising, partial curve, poor fit]"
Cc1ccsc1C(=O)NNC(=S)NC1CCCCC1,-13.3%,–,–
Cc1ccc(NC(=O)c2ccc(S(=O)(=O)NCc3ccco3)cc2)cc1,7.39%,–,"6.51 µM [rising, single point]"
FC(F)Oc1ccc(NC(=S)NC2CCCCCCC2)cc1,4.7%,–,"0.116 µM [rising, full curve, poor fit]"
